Molecular target: T1, nuclear homogenates of human pancreatic tumor cells (PANC-1) (Homo sapiens, UniProt Q9NZT2)
T1 construct: host or cells: PANC-1; nuclear (P1) homogenates, and P2, P3 and S3 fractions in the fractionation study
T1 sequence (Q9NZT2 1-677): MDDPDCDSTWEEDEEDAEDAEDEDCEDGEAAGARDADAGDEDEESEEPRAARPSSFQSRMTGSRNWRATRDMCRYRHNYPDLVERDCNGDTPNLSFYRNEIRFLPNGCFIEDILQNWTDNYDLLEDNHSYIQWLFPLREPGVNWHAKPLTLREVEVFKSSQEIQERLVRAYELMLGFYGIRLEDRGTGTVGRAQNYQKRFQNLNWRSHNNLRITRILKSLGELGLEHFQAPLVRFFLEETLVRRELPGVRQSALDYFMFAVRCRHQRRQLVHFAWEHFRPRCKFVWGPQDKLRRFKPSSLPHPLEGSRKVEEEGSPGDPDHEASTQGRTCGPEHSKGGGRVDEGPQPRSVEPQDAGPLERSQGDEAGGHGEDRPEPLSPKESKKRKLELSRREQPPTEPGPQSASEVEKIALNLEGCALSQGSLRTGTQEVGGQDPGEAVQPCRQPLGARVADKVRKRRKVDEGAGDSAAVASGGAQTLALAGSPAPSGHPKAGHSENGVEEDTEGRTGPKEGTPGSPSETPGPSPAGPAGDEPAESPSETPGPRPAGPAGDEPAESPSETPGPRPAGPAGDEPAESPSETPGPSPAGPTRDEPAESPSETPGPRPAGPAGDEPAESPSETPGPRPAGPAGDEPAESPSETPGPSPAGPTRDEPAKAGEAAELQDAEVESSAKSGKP
Assay: Competition for binding of [^3H]-[Met^5]-enkephalin in PANC-1 nuclear homogenates
Conditions: 1 or 2 nM radioligand
Description: Each concentration was run in triplicate and every compound was tested twice.
Analysis and statistics. Receptor binding data were analyzed with either the Lundon I (Saturation Isotherm Binding Analysis) computer program (Lundon Software, Cleveland, Ohio) or GraphPad Prism software. Both programs utilize nonlinear least-squares regression. Binding isotherms and Scatchard plots were computed directly by the programs. […] Comparisons of Bmax and Kd values were made using analysis of variance and posthoc Newman-Keuls tests.
Competition experiments using 1 or 2 nM [^3H]

## CN1CC[C@]23c4c5ccc(O)c4O[C@H]2[C@@H](O)C=C[C@H]3[C@H]1C5 [Morphine]
  competition for [^3H][Met^5]-enkephalin binding: little or no competition

Reference: patent publication US7122651B1, “Nucleic acid molecules encoding opioid growth factor receptors” (priority 1998, dated 2006)
